PubChem BioAssay AID493246 – Drosophila RNAi Screening Center | 2011
Aim: 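Identify essential fly genes by loss of cell viability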 (primary screen). Cell system: Drosophila Kc and S2R+ cells. Knock-down reagent: long dsRNA against Drosophila genes. Detection: 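Raw, unnormalised count of remaining cells in each well; per-plate z-scores of cell number underlie the calls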. Scale: Kc cell number and S2R+ cell number: higher = more cells remaining. Hit rule: 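Counted as a hit if cell number falls by a z-score of at least 3 within its plate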.
The screen tested about 21,000 reagents; below is a random part of those that have a named target and a result. In the full data, 429 (2%) are marked active. 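Values are raw and not normalised between plates; calls rest on per-plate z-scores that were not deposited.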 Not stated in the record: the amount of reagent, the time to read-out.

Which result is listed for Grp170 (Grp170 co-chaperone) [DRSC18524]?
Kc cell number, rep 1: 5.25e5; S2R+ cell number, rep 1: 8.86e5; call: inactive

For Nepl13 (Neprilysin-like 13) [DRSC15632], what does the deposit list?
Kc cell number, rep 1: 1.44e6; Kc cell number, rep 2: 1.46e6; S2R+ cell number, rep 1: 9.77e5; S2R+ cell number, rep 2: 1.04e6; call: inactive

How did the screen score CG12811 [DRSC14549]?
Kc cell number, rep 1: 1.73e6; Kc cell number, rep 2: 1.73e6; S2R+ cell number, rep 1: 1.36e6; S2R+ cell number, rep 2: 1.56e6; call: inactive

What is on record for Pcyt2 (Phosphocholine cytidylyltransferase 2) [DRSC08531]?
Kc cell number, rep 1: 1.38e6; Kc cell number, rep 2: 1.42e6; S2R+ cell number, rep 1: 1.11e6; S2R+ cell number, rep 2: 1.13e6; call: inactive

What did the screen give for Kdm4A (Lysine demethylase 4A) [DRSC06586]?
Kc cell number, rep 1: 1.43e6; Kc cell number, rep 2: 1.48e6; S2R+ cell number, rep 1: 1.15e6; S2R+ cell number, rep 2: 1.19e6; call: inactive

Taken from above.
Entry of Kdm4A (Lysine demethylase 4A) [DRSC06586] in “S2R+ cell number, rep 2”: 1.19e6
Grp170 (Grp170 co-chaperone) [DRSC18524], S2R+ cell number, rep 1 → 8.86e5

The listing continues:
For Strn-Mlck (Stretchin-Mlck) [DRSC05032], what does the deposit list?
Kc cell number, rep 1: 1.34e6; Kc cell number, rep 2: 1.40e6; S2R+ cell number, rep 1: 1.19e6; S2R+ cell number, rep 2: 1.21e6; call: inactive

Which result is listed for Strn-Mlck (Stretchin-Mlck) [DRSC05598]?
Kc cell number, rep 1: 5.05e5; S2R+ cell number, rep 1: 7.26e5; call: inactive

With Strn-Mlck (Stretchin-Mlck) [DRSC07471], what does the deposit list?
Kc cell number, rep 1: 1.56e6; Kc cell number, rep 2: 1.64e6; S2R+ cell number, rep 1: 1.17e6; S2R+ cell number, rep 2: 1.33e6; call: inactive

Which result is listed for Ubc2 (Ubiquitin conjugating enzyme 2) [DRSC01137]?
Kc cell number, rep 1: 1.55e6; Kc cell number, rep 2: 1.61e6; S2R+ cell number, rep 1: 1.04e6; S2R+ cell number, rep 2: 1.24e6; call: inactive

With Ubc2 (Ubiquitin conjugating enzyme 2) [DRSC03468], how do the results read?
Kc cell number, rep 1: 1.58e6; Kc cell number, rep 2: 1.57e6; S2R+ cell number, rep 1: 1.08e6; S2R+ cell number, rep 2: 1.22e6; call: inactive

With CG4390 [DRSC15572], how do the results read?
Kc cell number, rep 1: 1.64e6; Kc cell number, rep 2: 1.66e6; S2R+ cell number, rep 1: 1.27e6; S2R+ cell number, rep 2: 1.29e6; call: inactive

Which result is listed for Spps (Sp1-like factor for pairing sensitive-silencing) [DRSC15856]?
Kc cell number, rep 1: 1.42e6; Kc cell number, rep 2: 1.51e6; S2R+ cell number, rep 1: 9.97e5; S2R+ cell number, rep 2: 1.08e6; call: inactive

For Cdk12 (Cyclin-dependent kinase 12) [DRSC11836], what was measured?
Kc cell number, rep 1: 1.36e6; Kc cell number, rep 2: 1.51e6; S2R+ cell number, rep 1: 1.16e6; S2R+ cell number, rep 2: 1.13e6; call: inactive

Which result is listed for CG6891 [DRSC20016]?
Kc cell number, rep 1: 1.82e6; Kc cell number, rep 2: 1.91e6; S2R+ cell number, rep 1: 1.17e6; S2R+ cell number, rep 2: 1.31e6; call: inactive
